# Measurements reported in patent publication EP0406428B1 (ASAHI GLASS COMPANY LTD., priority 1988, dated 1995).
# Some peptides are written in HELM: one residue between dots, names in brackets for other building blocks, links after the first $.
# Experiment: general procedure: solution-phase peptide synthesis; WSC·HCl/HOBt; HOSu/WSC·HCl active ester for cyclisation in pyridine
# Settings: coupling step
row,Substance,step yield [%]
1,BocAsp(OcHex)AsnProAlaOBzl,87
2,BocValThr(Bzl)GlyArg(Tos)GlyAsp(OBzl)Ser(Bzl)ProAlaOPac,94
3,BocGlyArg(Tos)GlyAsp(OcHex)AsnProAlaOBzl,75
4,Boc Gly Arg(Tos)Gly Asp(OBzl)Ser(Bzl)Pro Ala OPac,50
5,Boc Asp(OBzl)Ser(Bzl)Pro Ala OPac,86.9

# Same assay, conditions: late stage modification step
row,Substance,step yield [%]
1,BocValThr(Bzl)GlyArg(Tos)GlyAsp(OBzl)Ser(Bzl)ProAlaOH,96
2,"PEPTIDE1{G.R.G.D.S.P.A}$PEPTIDE1,PEPTIDE1,1:R1-7:R2$$$V2.0",84
3,BocAlaValThr(Bzl)GlyOH,93
4,Boc Gly Arg(Tos)Gly Asp(OBzl)Ser(Bzl)Pro Ala OH,90
